{"source": "paper PMC9317851", "about": "“Genomic Characterization of Bacillus safensis Isolated from Mine Tailings in Peru and Evaluation of Its Cyanide-Degrading Enzyme CynD” (Applied and Environmental Microbiology, 2022)", "binders": {"B1": {"name": "Cyanide dihydratase CynD from Bacillus safensis PER-URP-08 (CynD_(PER-URP-08)), recombinant with C-terminal 6xHis tag (enzyme, UniProt P0DXY3 1-330, looked up)", "chain": "MTSIYPKFRAAAVQAAPVYLNLEATVEKSCELIDEAASNGAKLVAFPEAFLPGYPWFAFIGHPEYTRKFYHELYKNAVEIPSLAIQKISEAAKRNETYVCISCSEKDGGSLYLAQLWFNPNGDLIGKHRKMRASVAERLIWGDGSGSMMPVFQTDIGNLGGLMCWEHQVPLDLMAMNAQNEQVHVASWPGYFDDEISSRYYAIATQTFVLMTSSIYTEEMKEMICLTQEQRDYFETFKSGHTCIYGPDGEPISDMVPAETEGIAYAEIDVERVIDYKYYIDPAGHYSNQSLSMNFNQQPTPVVKQLYHQKNEVFTYEDIQYQHGILEEKV", "notes": "Cyanide dihydratase CynD of Bacillus safensis PER-URP-08, locus EGI07_08135; monomer 38.5 kDa; The forward primer carries the NdeI site CATATG followed by a further atg, so an added N-terminal Met may be present; also called recombinant CynD; EGI07_08135; source: E. coli BL21(DE3)/pLysS, purified (Ni-NTA, size exclusion chromatography); not shown: 6xHis, C-terminal, kept"}}, "key": {"[1]": {"molecular_target": "Cyanide dihydratase CynD from Bacillus safensis PER-URP-08 (CynD_(PER-URP-08)), recombinant with C-terminal 6xHis tag (Bacillus safensis PER-URP-08) (UniProt P0DXY3)", "experiment": "condition: only at pH 11 (100-μL injection of 89.36 μM CynD); SEC-MALS; pH 11; 100 mM NaCl, 20 mM CAPS; 100-μL injection of 3.47 mg/mL (89.36 μM) CynD; Superdex 200 increase 10/300 GL; both purified"}, "[2]": {"molecular_target": "Cyanide dihydratase CynD from Bacillus safensis PER-URP-08 (CynD_(PER-URP-08)), recombinant with C-terminal 6xHis tag (Bacillus safensis PER-URP-08) (UniProt P0DXY3)", "experiment": "negative-stain transmission electron microscopy; purified CynD at 3.25 or 1.625 mg/mL in 20 mM Tris-HCl (pH 8.0), 100 mM NaCl; stained with 2% uranyl acetate; both purified"}}, "note": "These are yes or no findings as the source states them, for the method shown. Some entries that bind do so weakly or less than the wild type. Tags and fused reporters may be left off the sequences shown."}
{"binder": "B1", "values": [{"measurement": "binding", "setting": "[1]", "result": "no binding"}, {"measurement": "binding", "setting": "[2]", "result": "binds"}]}
